Results from the supplement of paper PMC4604168 (melanoma cell lines).
Some of the results follow. Many values rest on one well or one pass, so single values are uncertain.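 Cells were imaged in 1,536-well plates, and nuclei stained with an antibody against cleaved PARP were counted against all DNA-stained nuclei to give the apoptosis fraction. Screening doses were chosen to leave most cells alive, and resting and induced cleaved-PARP levels differ strongly between cell lines.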

Columns and labels:
Experiment in all cases: cleaved PARP positive nuclei fraction relative to DMSO control; melanoma cells; higher = more apoptosis
Conditions in all cases: library dose: low library concentration; 72 h
CBRC034 = tested on: CBRC034 (line from a melanoma biopsy)
COLO792 = tested on: COLO792
COLO800 = tested on: COLO800
COLO829 = tested on: COLO829
G361 = tested on: G361
IPC-298 = tested on: IPC-298
IST-MEL1 = tested on: IST-MEL1
LB2518-MEL = tested on: LB2518-MEL
LOXIMVI = tested on: LOXIMVI
MeWo = tested on: MeWo
RPMI7951 = tested on: RPMI7951
RVH-421 = tested on: RVH-421
SkMel28 = tested on: SkMel28
SkMel30 = tested on: SkMel30
SkMel5 = tested on: SkMel5
UACC257 = tested on: UACC257
UACC62 = tested on: UACC62
MZ2-MEL = tested on: MZ2-MEL
MEL-HO = tested on: MEL-HO

Structure (SMILES) | cleaved PARP positive nuclei fraction (CBRC034) | cleaved PARP positive nuclei fraction (COLO792) | cleaved PARP positive nuclei fraction (COLO800) | cleaved PARP positive nuclei fraction (COLO829) | cleaved PARP positive nuclei fraction (G361) | cleaved PARP positive nuclei fraction (IPC-298) | cleaved PARP positive nuclei fraction (IST-MEL1) | cleaved PARP positive nuclei fraction (LB2518-MEL) | cleaved PARP positive nuclei fraction (LOXIMVI) | cleaved PARP positive nuclei fraction (MeWo) | cleaved PARP positive nuclei fraction (RPMI7951) | cleaved PARP positive nuclei fraction (RVH-421) | cleaved PARP positive nuclei fraction (SkMel28) | cleaved PARP positive nuclei fraction (SkMel30) | cleaved PARP positive nuclei fraction (SkMel5) | cleaved PARP positive nuclei fraction (UACC257) | cleaved PARP positive nuclei fraction (UACC62) | cleaved PARP positive nuclei fraction (MZ2-MEL) | cleaved PARP positive nuclei fraction (MEL-HO)
Cn1cncc1[C@@](N)(c1ccc(Cl)cc1)c1ccc2c(c1)c(-c1cccc(Cl)c1)cc(=O)n2C [tipifarnib] + N#Cc1c(O)c2c(-c3ccc(-c4ccccc4O)cc3)csc2[nH]c1=O [A769662] (first compound 0.01 µM, partner dose 2 µM) | 115% | 56.6% | 153% | 112% | 150% | 84.8% | 88% | 111% | 44.3% | 51.5% | 272% | 17% | 151% | 66.2% | 60.9% | 128% | 186% |  | 
Cn1cncc1[C@@](N)(c1ccc(Cl)cc1)c1ccc2c(c1)c(-c1cccc(Cl)c1)cc(=O)n2C [tipifarnib] + O=c1cc(-c2cccc3c2Sc2ccccc2S3)oc(N2CCOCC2)c1 [KU55933] (first compound 0.01 µM, partner dose 1 µM) | 89.5% | 107% | 171% | 150% | 79.7% | 85.3% | 89.3% | 247% | 33.2% | 80.3% | 95.6% | 68.2% | 180% | 41.9% | 64.4% | 76% | 192% | 172% | 
NC(=O)Nc1cc(-c2cccc(F)c2)sc1C(=O)N[C@H]1CCCNC1 + CC(C)CCN1c2nc(Nc3cc(F)c(O)c(F)c3)ncc2N(C)C(=O)C1C [BID1870] (first compound 0.02 µM, partner dose 0.2 µM) | 47.3% | 162% | 193% | 53.3% | 39% | 34% | 84.4% | 74.2% | 28.5% | 54% | 45.1% | 59.9% | 133% | 51.4% | 145% | 90.9% | 60.1% | 82.5% | 
CO[C@@H]1[C@H](N(C)C(=O)c2ccccc2)C[C@H]2O[C@]1(C)n1c3ccccc3c3c4c(c5c6ccccc6n2c5c31)C(=O)NC4 [Midostaurin] + Oc1nc(-c2ccc(C(F)(F)F)cc2)nc2c1CSCC2 [XAV939] (first compound 0.08 µM, partner dose 2 µM) | 60.7% | 163% | 68% | 71% | 104% | 84.3% | 28.4% | 88% | 57% | 257% | 120% | 115% | 89% | 53.9% | 149% | 111% | 151% |  | 
CC(C)(C)c1cnc(CSc2cnc(NC(=O)C3CCNCC3)s2)o1 + O=C(Nc1ccccc1)c1cc([N+](=O)[O-])ccc1Cl [GW9662] (first compound 0.01 µM, partner dose 2 µM) | 196% | 110% | 109% | 165% | 92.5% | 74.4% | 163% | 77.4% | 74.3% | 126% | 92.4% | 120% | 42.6% | 246% | 54.2% | 98.9% | 96% | 91.3% | 
Cc1nc(Nc2ncc(C(=O)Nc3c(C)cccc3Cl)s2)cc(N2CCN(CCO)CC2)n1 [dasatanib] + O=C(O)C(=O)Nc1sc2c(c1C(=O)O)CCNC2 [TCS401] (first compound 0.004 µM, partner dose 1.66667 µM) | 262% | 73.8% | 246% | 146% | 139% | 58.4% | 125% | 113% | 127% | 116% | 122% | 55.6% | 120% | 6.97% | 72.2% | 191% | 89.1% | 59.2% | 
Cc1nc(Nc2ncc(C(=O)Nc3c(C)cccc3Cl)s2)cc(N2CCN(CCO)CC2)n1 [dasatanib] + C[C@]1(c2nc3c(C(N)=O)cccc3[nH]2)CCCN1 [Veliparib] (first compound 0.004 µM, partner dose 1.4 µM) | 62% | 144% | 140% | 115% | 114% | 87.9% | 50.6% |  | 290% | 106% | 97.5% | 207% | 60.5% | 99.7% |  |  | 139% |  | 200%
Cc1nc(Nc2ncc(C(=O)Nc3c(C)cccc3Cl)s2)cc(N2CCN(CCO)CC2)n1 [dasatanib] + COC(=O)c1sccc1S(=O)(=O)Nc1ccc(Nc2ccccc2)cc1OC [GSK0660] (first compound 0.004 µM, partner dose 1 µM) | 171% | 190% | 74.5% | 116% | 142% | 108% | 77.4% | 170% | 218% | 106% | 113% | 110% | 159% | 37.4% | 151% | 114% | 200% | 126% | 
CO[C@@H]1[C@H](N(C)C(=O)c2ccccc2)C[C@H]2O[C@]1(C)n1c3ccccc3c3c4c(c5c6ccccc6n2c5c31)C(=O)NC4 [Midostaurin] + c1cc(-c2cnn3cc(-c4ccc(OCCN5CCCCC5)cc4)cnc23)ccn1 [Dorsomorphin] (first compound 0.08 µM, partner dose 0.4 µM) | 83.8% | 97.4% | 189% | 111% | 37.4% | 116% | 160% |  | 89.1% | 226% | 41.7% | 146% | 109% | 23.3% | 64% | 118% | 78.4% |  | 

A few values from above.
Entry for Cn1cncc1[C@@](N)(c1ccc(Cl)cc1)c1ccc2c(c1)c(-c1cccc(Cl)c1)cc(=O)n2C [tipifarnib] + O=c1cc(-c2cccc3c2Sc2ccccc2S3)oc(N2CCOCC2)c1 [KU55933] (first compound 0.01 µM, partner dose 1 µM) under cleaved PARP positive nuclei fraction (COLO792): 107%
Entry for NC(=O)Nc1cc(-c2cccc(F)c2)sc1C(=O)N[C@H]1CCCNC1 + CC(C)CCN1c2nc(Nc3cc(F)c(O)c(F)c3)ncc2N(C)C(=O)C1C [BID1870] (first compound 0.02 µM, partner dose 0.2 µM) under cleaved PARP positive nuclei fraction (COLO800): 193%
